The list shows a part of the results. Many values rest on one well or one pass, so single values are uncertain.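 Cells were imaged in 1,536-well plates, and nuclei stained with an antibody against cleaved PARP were counted against all DNA-stained nuclei to give the apoptosis fraction. Screening doses were chosen to leave most cells alive, and resting and induced cleaved-PARP levels differ strongly between cell lines.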
Legend:
Test in all cases: cleaved PARP positive nuclei fraction relative to DMSO control; melanoma cells; higher = more apoptosis
Settings in all cases: library dose: low library concentration; 72 h
MZ2-MEL = test system: MZ2-MEL
MeWo = test system: MeWo
RPMI7951 = test system: RPMI7951
RVH-421 = test system: RVH-421
SkMel28 = test system: SkMel28
SkMel2 = test system: SkMel2
SkMel30 = test system: SkMel30
SkMel5 = test system: SkMel5
UACC257 = test system: UACC257
UACC62 = test system: UACC62
WM115 = test system: WM115
WM1716 = test system: WM1716
WM1745 = test system: WM1745
WM3526 = test system: WM3526
WM3619 = test system: WM3619
WM451Lu = test system: WM451Lu

Row | SMILES | cleaved PARP positive nuclei fraction (MZ2-MEL) [%] | cleaved PARP positive nuclei fraction (MeWo) [%] | cleaved PARP positive nuclei fraction (RPMI7951) [%] | cleaved PARP positive nuclei fraction (RVH-421) [%] | cleaved PARP positive nuclei fraction (SkMel28) [%] | cleaved PARP positive nuclei fraction (SkMel2) [%] | cleaved PARP positive nuclei fraction (SkMel30) [%] | cleaved PARP positive nuclei fraction (SkMel5) [%] | cleaved PARP positive nuclei fraction (UACC257) [%] | cleaved PARP positive nuclei fraction (UACC62) [%] | cleaved PARP positive nuclei fraction (WM115) [%] | cleaved PARP positive nuclei fraction (WM1716) [%] | cleaved PARP positive nuclei fraction (WM1745) [%] | cleaved PARP positive nuclei fraction (WM3526) [%] | cleaved PARP positive nuclei fraction (WM3619) [%] | cleaved PARP positive nuclei fraction (WM451Lu) [%]
1 | CC(C)C[C@H](NC(=O)[C@H](Cc1ccccc1)NC(=O)c1cnccn1)B(O)O [Bortezomib] + Oc1cc(-c2nc(-c3ccccc3)[nH]c2-c2ccncc2)ccc1Cl [L779450] (first compound 0.001 µM, partner dose 0.2 µM) | 101 | 93.1 | 120 | 138 | 346 | 75.5 | 171 | 120 | 118 | 247 | 95.1 | 462 | 264 | 48.6 | 477 | 53.4
2 | Nc1ncn([C@H]2C[C@H](O)[C@@H](CO)O2)c(=O)n1 [decitabine] + CCc1ccc(CCOc2ccc(CC3SC(=O)NC3=O)cc2)nc1 [pioglitazone] (first compound 0.1 µM, partner dose 2 µM) | 96.6 | 53.7 | 82 | 95.1 | 208 | 60.6 | 44.5 | 227 | 78.7 | 95.7 | 246 | 49.3 | 126 | 133 | 94.2 | 52.5
3 | Nc1nc(F)nc2c1ncn2[C@@H]1O[C@H](CO)[C@@H](O)[C@@H]1O [fludarabine] + CN(NC(=O)CC(=O)NN(C)C(=S)c1ccccc1)C(=S)c1ccccc1 [STA4783] (first compound 0.2 µM, partner dose 0.006 µM) | 76.5 | 1660 | 48.3 | 69.7 | 41 | 524 | 332 | 181 | 643 | 91.5 | 145 | 113 | 195 | 258 | 182 | 637
4 | Cn1c(=O)n(-c2ccc(C(C)(C)C#N)cc2)c2c3cc(-c4cnc5ccccc5c4)ccc3ncc21 + CN(C)S(=O)(=O)c1ccc2c(c1)/C(=C/c1cc3c([nH]1)CCCC3)C(=O)N2 [SU6656] (first compound 0.004 µM, partner dose 0.4 µM) | 118 | 105 | 86.6 | 29.6 | 110 | 80.1 | 67.2 | 167 | 134 | 206 | 170 | 33.6 | 104 | 120 | 67.2 | 55.9
5 | CN1CCN(c2ccc3nc(-c4c(N)c5c(F)cccc5[nH]c4=O)[nH]c3c2)CC1 [Dovitinib] + O=C1NC(=O)/C(=C/c2ccc(-c3ccc(F)cc3O)o2)S1 [AS252424] (first compound 0.1 µM, partner dose 1 µM) | 115 | 135 | 109 | 166 | 136 | 62.1 | 96.5 | 90 | 171 | 189 | 350 | 87.7 | 108 | 79.7 | 106 | 37.4
6 | CS(=O)(=O)CCNCc1ccc(-c2ccc3ncnc(Nc4ccc(OCc5cccc(F)c5)c(Cl)c4)c3c2)o1 [lapatinib] + Cc1cc(N2CCOCC2)cc2[nH]c(-c3c(NC[C@@H](O)c4cccc(Cl)c4)cc[nH]c3=O)nc12 [BMS536924] (first compound 0.8 µM, partner dose 0.2 µM) | 120 | 293 | 35.9 | 84.6 | 91.4 | 124 | 69.4 | 62.7 | 45.4 | 329 | 138 | 96.7 | 123 | 125 | 100 | 98.7
7 | CN1CCN(c2ccc3nc(-c4c(N)c5c(F)cccc5[nH]c4=O)[nH]c3c2)CC1 [Dovitinib] + COC(=O)c1sccc1S(=O)(=O)Nc1ccc(Nc2ccccc2)cc1OC [GSK0660] (first compound 0.1 µM, partner dose 1 µM) | 80 | 91 | 35.7 | 127 | 97.2 | 84.4 | 96.3 | 77.9 | 88.1 | 94.2 | 176 | 111 | 171 | 79.5 | 75.7 | 147
8 | CC(C)C[C@H](NC(=O)[C@H](Cc1ccccc1)NC(=O)c1cnccn1)B(O)O [Bortezomib] + COC(=O)c1sccc1S(=O)(=O)Nc1ccc(Nc2ccccc2)cc1OC [GSK0660] (first compound 0.001 µM, partner dose 1 µM) | 125 | 156 | 119 | 49.7 | 163 | 96.4 | 48.7 | 74.5 | 257 | 181 | 137 | 237 | 160 | 219 | 1460 | 35.7
9 | C[C@@H](Oc1cc(-c2cnn(C3CCNCC3)c2)cnc1N)c1c(Cl)ccc(F)c1Cl [Crizotinib] + COc1ccc(-c2ccc3c(N4CCOCC4)nc(N4C[C@@H](C)O[C@@H](C)C4)nc3n2)cc1CO [KU0063794] (first compound 0.2 µM, partner dose 0.02 µM) | 98.9 | 111 | 85.4 | 162 | 154 | 119 | 124 | 89.6 | 55.4 | 96.5 | 66.5 | 108 | 181 | 79 | 104 | 70.6

From the supplement of paper PMC4604168 (melanoma cell lines)
